These results are taken from PMC8310061.

No constants are given. Whether binding was seen depends on the method and setting. In cells and extracts the contact can be indirect. A result given as binding can be weak or reduced; the word gives no strength.

For the assay, the target named is His-tagged scaffold Δ49ApoA1. As to the kind of experiment: pull-down; MOMP and His-tagged Δ49ApoA1 co-translated in an E. coli cell-free reaction with DMPC and telodendrimer PEG5k-CA8, 30 °C, 14-18 h; complex purified on nickel resin by the His tag of Δ49ApoA1; SDS-PAGE and dot blot with mAb40 and Penta-His.

B1: Chlamydia muridarum major outer membrane protein (MOMP) (protein, UniProt P75024 1-387)
chain: MKKLLKSVLAFAVLGSASSLHALPVGNPAEPSLMIDGILWEGFGGDPCDPCTTWCDAISLRLGYYGDFVFDRVLKTDVNKQFEMGAAPTGDADLTTAPTPASRENPAYGKHMQDAEMFTNAAYMALNIWDRFDVFCTLGATSGYLKGNSAAFNLVGLFGRDETAVAADDIPNVSLSQAVVELYTDTAFAWSVGARAALWECGCATLGASFQYAQSKPKVEELNVLCNAAEFTINKPKGYVGQEFPLNIKAGTVSATDTKDASIDYHEWQASLALSYRLNMFTPYIGVKWSRASFDADTIRIAQPKLETSILKMTTWNPTISGSGIDVDTKITDTLQIVSLQLNKMKSRKSCGLAIGTTIVDADKYAVTVETRLIDERAAHVNAQFRF
On to B1, for which the binding entry is “binds”.
